Laboratory results as given in patent US20230132177A1.
Results are given in words; binding and its absence hold for the method and conditions named. Some binding calls cover weakened binding; strength is not graded here. Blank lines part the entries; values can stand above or below the binder they belong to.

Chains of the proteins cited; added tags and fusions are not shown. Lines headed by an entry give the natural chain unless they say otherwise; changes in a name come on top.
UniProt P02671: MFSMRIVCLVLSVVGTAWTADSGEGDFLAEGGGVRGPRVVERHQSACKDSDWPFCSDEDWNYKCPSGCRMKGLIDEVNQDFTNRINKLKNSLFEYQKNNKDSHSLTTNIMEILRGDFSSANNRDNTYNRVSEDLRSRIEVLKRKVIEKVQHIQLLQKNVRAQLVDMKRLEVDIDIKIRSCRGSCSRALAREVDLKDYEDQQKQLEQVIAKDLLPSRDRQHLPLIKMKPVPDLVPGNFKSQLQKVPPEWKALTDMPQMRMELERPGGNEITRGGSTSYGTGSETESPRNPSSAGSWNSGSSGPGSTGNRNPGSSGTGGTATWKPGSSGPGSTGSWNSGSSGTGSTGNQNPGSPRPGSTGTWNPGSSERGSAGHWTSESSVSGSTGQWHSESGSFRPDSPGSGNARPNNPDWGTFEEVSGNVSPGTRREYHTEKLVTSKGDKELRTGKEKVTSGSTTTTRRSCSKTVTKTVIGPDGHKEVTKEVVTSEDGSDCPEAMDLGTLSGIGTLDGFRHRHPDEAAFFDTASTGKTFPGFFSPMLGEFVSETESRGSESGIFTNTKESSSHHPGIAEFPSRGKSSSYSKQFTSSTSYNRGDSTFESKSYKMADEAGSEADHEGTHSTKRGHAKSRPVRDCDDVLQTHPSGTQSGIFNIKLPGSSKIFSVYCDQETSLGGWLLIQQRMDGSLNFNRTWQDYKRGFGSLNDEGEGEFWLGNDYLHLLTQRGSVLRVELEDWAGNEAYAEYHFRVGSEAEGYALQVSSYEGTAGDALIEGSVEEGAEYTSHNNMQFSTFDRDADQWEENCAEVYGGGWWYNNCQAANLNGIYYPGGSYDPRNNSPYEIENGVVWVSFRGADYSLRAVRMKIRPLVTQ

Tests used:
denatured fibrinogen [1] = target: denatured fibrinogen (UniProt P02671); assay: western blot on denatured fibrinogen (1 µg/lane)
insoluble fibrin = insoluble fibrin (UniProt P02671); assay: ELISA, plate coated with insoluble fibrin, HRP-labeled antibody
denatured fibrinogen [2] = target: denatured fibrinogen (UniProt P02671); assay: western blot on denatured fibrinogen after SDS-PAGE, anti-human IgG-HRP secondary

binding (denatured fibrinogen [1]): binds
binding (insoluble fibrin): binds
binding (denatured fibrinogen [2]): binds
B1: humanized 99 antibody (antibody, V domains shown)
VH: QVQLVQSGAEVKKPGASVKVSCKASGYTFTNYGMNWVRQAPGQGLEWMGWINTKIGEPTYAQKFQGRVTMTRDKSSSTAYMELSSLRSEDTAVYYCARLLDYWGQGTLVTVSS
VL: DIQMTQSPSSLSASVGDRVTITCRASQSVLYSSNQKNYLAWYQQKPGKSPKLLIYWASSLQSGVPSRFSGSGSGTDFTLTISSLQPEDFATYYCHQYLSSYTFGQGTKVEIKR

binding (denatured fibrinogen [1]): binds
binding (insoluble fibrin): binds
binding (denatured fibrinogen [2]): binds
B2: humanized 1101 antibody (antibody, V domains shown)
VH: EVQLVQSGAEVKKPGESLKISCKGSGYSFTSYWMHWVRQMPGKGLEWIGAIYPGNSDTRYSPSFQGQVTISADKSISTAYLQWSSLKASDTAMYYCTRKAHYGNYGFAYWGQGTLVTVSS
VL: DIQMTQSPSSLSASVGDRVTITCRASQHINNWLAWYQQKPGKAPKLLISGATSLQSGVPSRFSGSGSGTDFTLTISSLQPEDFATYYCQQYWSTPLTFGQGTKVEIKR
